Laboratory results as given in article PMC3718739.
These are yes or no findings as the source states them, for the method shown.

Chains of the proteins cited; added tags and fusions are not shown. Residues count along the entry.
UniProt P02769, residues 25-607: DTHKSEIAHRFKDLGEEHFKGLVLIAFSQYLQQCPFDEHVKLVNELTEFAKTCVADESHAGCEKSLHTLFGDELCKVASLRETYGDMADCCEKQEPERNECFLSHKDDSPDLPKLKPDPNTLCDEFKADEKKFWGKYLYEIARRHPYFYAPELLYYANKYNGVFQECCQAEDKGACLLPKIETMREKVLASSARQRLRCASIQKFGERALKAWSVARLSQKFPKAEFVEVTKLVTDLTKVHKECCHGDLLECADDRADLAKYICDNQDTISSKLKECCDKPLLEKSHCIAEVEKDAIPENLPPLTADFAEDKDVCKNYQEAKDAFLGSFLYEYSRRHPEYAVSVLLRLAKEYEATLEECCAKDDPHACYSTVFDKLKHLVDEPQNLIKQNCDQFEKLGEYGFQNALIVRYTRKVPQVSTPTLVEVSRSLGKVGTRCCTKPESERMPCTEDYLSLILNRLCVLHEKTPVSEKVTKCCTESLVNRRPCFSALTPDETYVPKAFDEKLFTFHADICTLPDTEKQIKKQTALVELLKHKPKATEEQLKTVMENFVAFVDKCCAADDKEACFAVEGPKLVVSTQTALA
UniProt P9WGM3: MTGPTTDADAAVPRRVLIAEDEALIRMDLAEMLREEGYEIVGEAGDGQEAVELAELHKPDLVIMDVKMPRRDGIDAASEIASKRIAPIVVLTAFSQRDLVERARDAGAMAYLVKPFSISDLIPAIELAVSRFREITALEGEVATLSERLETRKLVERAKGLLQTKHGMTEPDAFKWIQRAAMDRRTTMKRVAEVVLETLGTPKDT

Molecular target: BSA (bovine (from the name BSA)) (UniProt P02769)
Experiment: far-Western, overlay or dot blot; both purified

GST-Rv1626 (from UniProt P9WGM3 1-205)
binding: no binding (tested: 1 µg/ml)
